Source: PubChem BioAssay AID1487 (National Center for Advancing Translational Sciences (NCATS), 2009)
Some of the results follow. Further columns of the screen follow, without active or inactive calls. Most of these compounds were active or inconclusive in the main read-out, so they are no random draw. Potencies come from curve fits of mixed quality, noted in brackets.

Assay: qHTS Assay for Modulators of Lamin A Splicing
Conditions: HeLa LMNA splicing GFP/RFP minigene ratio, 48 h
Summary of the method: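 S3 HeLa stable clones carrying a lamin A-EGFP splicing minigene plus DsRed2 were seeded at 600 cells/well in Opti-MEM with 2% FBS, pin-dosed and incubated 48 h at 37°C. Acumen cytometry (488 nm) gave the GFP/RFP total-intensity ratio.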

[1] = measured here: GFP splicing reporter channel
[2] = measured here: RFP viability control channel

Row | SMILES | AC50 [1] | AC50 [2]
1 | O=C(c1cc(-c2ccccc2)nc2ccccc12)N1CCc2ccccc2C1 | 25.1 µM [falling, single point] | 
2 | CCCc1cc(=O)n2[nH]c(-c3ccc(Br)cc3)cc2n1 |  | 35.5 µM [rising, single point]
3 | COc1ccc(N(C(=O)CCl)C(C(=O)NCCc2ccccc2)c2cccs2)cc1 (configuration not stated) | 35.5 µM [falling, single point] | 35.5 µM [falling, single point]
4 | CCc1nnc(NS(=O)(=O)c2ccc(NC(=S)NC(=O)c3cccnc3)cc2)s1 | 0.891 µM [falling, full curve, poor fit] | 
5 | CC(C)(C)C1CCC(OCC(O)CN2CCN(Cc3ccccc3)CC2)CC1 (configuration not stated) |  | 12.6 µM [rising, partial curve]
6 | Cc1ccc(Nc2nc(CSc3nnc(-c4ccccc4)n3C)cs2)cc1 | 14.1 µM [rising, partial curve] | 17.8 µM [rising, partial curve]
7 | CSc1ccc(C(=O)C2CCCN(S(=O)(=O)c3c(C)noc3C)C2)cc1 (configuration not stated) | 8.91 µM [falling, partial curve] | 7.08 µM [falling, full curve]
8 | N=c1c2c3c(sc2ncn1CCN1CCOCC1)CCCC3 | 35.5 µM [rising, partial curve] | 35.5 µM [rising, partial curve]
9 | N#Cc1nc(Cc2cccc3ccccc23)oc1N1CCC(C(N)=O)CC1 | 12.6 µM [rising, single point] | 12.6 µM [rising, single point]
10 | O=C(Nc1ccc(N2CCOCC2)nc1)c1ccc(C(F)(F)F)cc1 | 0.01 µM [falling, full curve, poor fit] | 
11 | COc1cccc(-c2nc(NC3CC3)c3ccccc3n2)c1 | 20 µM [falling, partial curve] | 35.5 µM [falling, single point]
12 | CC1=CC(=O)N(c2ccc(C)cc2)C1c1ccc(Cl)cc1 (configuration not stated) | 14.1 µM [rising, single point] | 
13 | Cc1ccc(Nc2cc(-n3nc(C)cc3C)ncn2)cc1 |  | 8.91 µM [rising, partial curve, poor fit]
14 | COc1ccccc1CNc1ccnc(-c2ccc(N(C)C)cc2)n1 | 12.6 µM [falling, partial curve] | 12.6 µM [falling, partial curve]
15 | Cc1ccc(Nc2nc(C(N)=O)c(NC(=O)c3ccccc3Br)s2)cc1 | 2.51 µM [falling, full curve, poor fit] | 2.51 µM [falling, partial curve, poor fit]
16 | Nc1oc2ccc(F)cc2c(=O)c1C=O | 1 µM [falling, partial curve] | 1.26 µM [falling, full curve, poor fit]
17 | O=C(Nc1cccc(Cl)c1)Nc1nnc(-c2ccncc2)s1 | 2.51 µM [rising, full curve] | 4.47 µM [rising, full curve]
18 | C/C(N)=C(/C#N)C(=O)COC(=O)c1ccccc1Cc1ccccc1 | 5.01 µM [falling, full curve, poor fit] | 
19 | Cc1cccc(NC(=S)N(Cc2ccc(Br)cc2)Cc2ccc(C(=O)O)cc2)c1 | 35.5 µM [falling, single point] | 20 µM [falling, single point]

Row | SMILES | AC50 [1] | AC50 [2]
20 | O=C(Nc1nc2c(c(=O)[nH]1)CCCC2)C1CC1 |  | 22.4 µM [rising, single point]
21 | Cc1ccc(NC(=O)CC2Nc3ccccc3NC2=O)cc1Cl (configuration not stated) | 15.8 µM [falling, single point] | 17.8 µM [falling, partial curve]
22 | CC(C)(C)C(=O)Nc1ccc2nc(SCc3ccccc3)sc2c1 |  | 35.5 µM [rising, single point]
23 | CCn1c(SCC(=O)Nc2ccc3c(c2)OCO3)nc2ccccc21 |  | 10 µM [rising, partial curve]
24 | CO/N=C/c1ccc(Oc2ccc([N+](=O)[O-])cc2[N+](=O)[O-])c(OC)c1 |  | 31.6 µM [rising, single point]
25 | COc1ccc(S(=O)(=O)N2CCC(C(=O)N3CCOCC3)CC2)cc1Cl | 6.31 µM [falling, single point] | 5.62 µM [falling, single point]
26 | C[N+]1(C)C[C@@H](O)C[C@@H]1C(=O)[O-] | 0.0316 µM [falling, partial curve, poor fit] | 0.0708 µM [falling, full curve, poor fit]
27 | CC(=O)Nc1ccc(NC(=O)COC(=O)C2(c3ccc(Cl)cc3)CCCC2)cc1 |  | 11.2 µM [rising, partial curve]
28 | COc1ccc(C(=O)n2c(-c3ccco3)nc3ccccc32)cc1 | 11.2 µM [rising, partial curve] | 10 µM [rising, partial curve]
29 | CCOC(=O)c1ccc(O)cc1 | 0.00316 µM [falling, full curve, poor fit] | 
30 | c1ccc(Cn2c(-c3ccccc3)nc3nc4ccccc4nc32)cc1 | 12.6 µM [rising, partial curve] | 35.5 µM [rising, single point]
31 | Cc1ccc(Cl)cc1N1CCN(C(=O)c2ccc3nc[nH]c3c2)CC1 | 0.355 µM [rising, single point] | 20 µM [rising, partial curve, poor fit]
32 | C=CCn1c2ccccc2c2nnc(SCCCn3c(=O)[nH]c4ccccc43)nc21 |  | 12.6 µM [rising, partial curve, poor fit]
33 | CC(C)c1ccc(/C=C/C(=O)Nc2nn[nH]n2)cc1 | 1 µM [rising, partial curve, poor fit] | 
34 | O=C(N/N=C/c1ccc(-c2ccccc2[N+](=O)[O-])o1)[C@H]1C[C@@H]1c1ccccc1 |  | 31.6 µM [rising, single point]
35 | CC1=C(C(=O)Nc2cccc(F)c2)C2(CCCCC2)OC1=O | 0.0316 µM [rising, full curve, poor fit] | 
36 | CCCC(=O)NC(=S)NNC(=O)c1ccc([N+](=O)[O-])cc1 |  | 12.6 µM [rising, single point]
37 | CCCCCCC(=O)N(O)C1CC(=O)N(c2ccccc2)C1=O (configuration not stated) | 35.5 µM [falling, single point] | 5.01 µM [rising, single point]
38 | O=C(O/N=C(\c1ccccc1)c1ccncc1)c1ccccc1Cl | 4.47 µM [rising, partial curve, poor fit] | 

Reformatted in markdown: entries from further up

| Row | SMILES | AC50 [1] | AC50 [2] |
| --- | --- | --- | --- |
| 29 | CCOC(=O)c1ccc(O)cc1 | 0.00316 µM [falling, full curve, poor fit] |  |
| 30 | c1ccc(Cn2c(-c3ccccc3)nc3nc4ccccc4nc32)cc1 | 12.6 µM [rising, partial curve] | 35.5 µM [rising, single point] |
| 31 | Cc1ccc(Cl)cc1N1CCN(C(=O)c2ccc3nc[nH]c3c2)CC1 | 0.355 µM [rising, single point] | 20 µM [rising, partial curve, poor fit] |
| 32 | C=CCn1c2ccccc2c2nnc(SCCCn3c(=O)[nH]c4ccccc43)nc21 |  | 12.6 µM [rising, partial curve, poor fit] |

More structures.

Row | SMILES | AC50 [1] | AC50 [2]
39 | COC(=O)c1cc(-c2ccc(NC(C)=O)cc2)nc2ccccc12 | 31.6 µM [falling, single point] | 
40 | CN(c1ccccc1)c1ccc(/C=C(\C#N)c2nnc3n2CCCCC3)cc1[N+](=O)[O-] |  | 20 µM [rising, partial curve]
41 | Cc1cccc(S(=O)(=O)C(C#N)c2nc3ccccc3nc2N2CC(C)OC(C)C2)c1 (configuration not stated) |  | 11.2 µM [rising, partial curve]
42 | COc1ccc(CNC(=O)c2cc(-c3ccc(OC)c(OC)c3)nc3n[nH]c(-c4ccc(C)cc4)c23)cc1 |  | 11.2 µM [falling, partial curve]
43 | O=C(c1ccc2c(c1)OCO2)N1CCCc2ccccc21 |  | 11.2 µM [rising, partial curve, poor fit]
44 | COc1cccc(Cn2c(=O)c(-c3cn(C)c4ccccc34)nc3cnc(N4CCNCC4)nc32)c1 | 28.2 µM [falling, single point] | 25.1 µM [falling, single point]
45 | c1ccc(-c2csc(=Nc3cccnc3)n2CC2CCCO2)cc1 (configuration not stated) |  | 12.6 µM [rising, partial curve]
46 | COc1ccc(CC(=O)NCc2n[nH]c(=S)n2-c2ccc(F)cc2)cc1 | 0.0447 µM [rising, full curve] | 
47 | O=C(CSc1ccc2nc(-c3ccccc3)cn2n1)Nc1ccccc1 | 0.0501 µM [rising, full curve] | 
48 | CCCOc1ccc(OC(=O)c2ccc(Br)o2)cc1 | 35.5 µM [falling, single point] | 
49 | CC(C)N1CCC(N2CCN(CCCn3cccn3)CC2CCO)CC1 (configuration not stated) |  | 0.0224 µM [falling, full curve, poor fit]
50 | O=C(NNC(=O)c1cccc(S(=O)(=O)N2CCN(c3ccccc3)CC2)c1)c1ccc(Cl)cc1 |  | 35.5 µM [rising, single point]
51 | CCN(CC)C(=O)C(=O)c1cn(CC(=O)NCc2ccc3c(c2)OCO3)c2ccccc12 | 1.58 µM [rising, partial curve, poor fit] | 
52 | O=c1c(N2CCN(c3ccc(F)cc3)CC2)csc2ccc(F)cc12 |  | 10 µM [rising, partial curve]
53 | O=C(Nc1nc(-c2ccc(S(=O)(=O)N3CCCCCC3)cc2)cs1)c1ccccc1 |  | 3.98 µM [rising, single point]
54 | c1ccc(Nc2nc3ccccc3n3cnnc23)cc1 |  | 15.8 µM [rising, single point]
55 | COc1ccccc1-c1nc2cc3ccccc3cc2nc1-c1ccccc1 | 10 µM [rising, partial curve] | 11.2 µM [rising, partial curve]
56 | COc1ccc2nc(N3CCN(C(=O)CS(=O)(=O)c4ccc(C)cc4)CC3)sc2c1 | 10 µM [falling, partial curve] | 
57 | Cc1ccc(-c2cc(C(=O)N/N=C/c3c[nH]c4ccccc34)[nH]n2)cc1 |  | 4.47 µM [rising, full curve, poor fit]
